# Data reported in the supplement of paper PMC3334620.
# Over roughly 33,000 sequences, “E-score (-0.5 to 0.5)” has its median near -0.0034; the highest 2% begin near 0.25. Some of the results follow.
# Biological target: T1, Yap3 (UniProt P38749)
# T1 sequence: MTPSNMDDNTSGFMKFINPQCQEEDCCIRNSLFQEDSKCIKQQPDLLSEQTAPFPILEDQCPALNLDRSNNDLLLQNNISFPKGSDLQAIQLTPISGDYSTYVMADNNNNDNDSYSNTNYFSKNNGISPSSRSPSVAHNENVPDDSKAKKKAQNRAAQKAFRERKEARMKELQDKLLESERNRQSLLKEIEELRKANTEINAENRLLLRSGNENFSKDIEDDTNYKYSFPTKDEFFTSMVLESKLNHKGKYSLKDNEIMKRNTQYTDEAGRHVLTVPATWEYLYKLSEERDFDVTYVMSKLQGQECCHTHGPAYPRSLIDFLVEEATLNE
# Experiment: PBM E-score (8-mer binding enrichment) (E-score (-0.5 to 0.5)); higher = stronger / more preferred TF binding
# Conditions: protein concentration: 100 nM; construct: GST-full length
# How it was run: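 Detection of bound protein used fluorescent anti-GST, with scans normalised by masliner. The proteins were GST-tagged yeast transcription factors applied at about 100-200 nM to universal all-10-mer Agilent arrays made double-stranded by primer extension. Each ungapped eight-base word, pooled with its reverse complement, was scored with an E-score from the Universal PBM Analysis Suite.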
row,Sequence,PBM E-score
1,AAGGGGTC,-0.275
2,GCAGACGC,-0.143
3,GAGGTACA,0.0709
4,CTGAGCAC,-0.0962
5,AGTCCTGC,-0.177
6,CCCCCTGC,-0.344
7,CCCTGGCG,-0.12
8,AGGCAATG,-0.0865
9,CTCGTGCC,-0.121
10,ATTCATAA,0.243
11,CCGCACAG,-0.117
12,CGGCAAGC,-0.0808
13,ACCTATTA,0.11
14,ATAAACTC,0.0774
15,CAGTATCG,0.00063
16,ACAAGCCA,-0.126
17,CCATGACA,0.113
18,CTGCTGGA,-0.158
19,CGACATTC,0.0117
20,AGAGTACT,0.0593
21,CAACTTGG,0.145
22,AGGGTGAG,-0.175

row,Sequence,PBM E-score
1,GACCTTAA,-0.113
2,CTATATCC,0.119
3,AGGGTGAC,0.0105
4,ATATCCTC,0.199
5,GTGACCAA,0.0953
6,ATGATACG,0.207
7,CTCTGGCC,-0.263
8,GACGGGAA,-0.00643
9,GAAGTCCC,-0.26
10,ACCGGCCG,-0.114
11,TGTACCAA,0.0503
12,GAACCCAC,0.028
13,AGAGTTGA,0.0468
14,CATTTCTA,0.11
15,AGATTTCG,0.0612
16,AGCTAGCG,-0.0438
17,ATACGTCC,-0.169
18,AGGATACC,-0.0219
19,AGGCACTA,-0.127
20,AATCAATT,0.256
21,AAACACGT,0.0575
22,ACAAGTCG,-0.189

# Two entries from above, tab-delimited:
row	Sequence	PBM E-score
18	AGGATACC	-0.0219
19	AGGCACTA	-0.127

# Later entries.

row,Sequence,PBM E-score
1,ACAGATCC,0.145
2,AGGTGGAA,0.0811
3,CCTATAAG,0.0487
4,AGTTTAGA,0.182
5,GTAACGTA,0.0751
6,CTTTATCC,0.00568
7,ATTGGCTA,0.104
8,AATTCTAG,0.0261
9,CAAGCAAC,0.111
10,ACCGAAGA,0.0139
11,CTCGGCAA,-0.00099
12,CCTCCTTC,-0.234
13,AAAGAAGC,0.0805
14,CCAAGCGC,-0.0338
15,ATGTGAAT,0.124
16,AAATCCAT,0.29
17,AGCTACAG,-0.113
18,AGTTTACA,0.118
19,ATCCGGCG,-0.0357
20,ATACGGAT,0.121
21,ACAGCGCA,-0.0611
22,ACAATTGG,-0.0674

# Part of the list above, with bars between the fields:
row | Sequence | PBM E-score
1 | ACAGATCC | 0.145
4 | AGTTTAGA | 0.182
5 | GTAACGTA | 0.0751
20 | ATACGGAT | 0.121

# (next part)

row,Sequence,PBM E-score
1,GAGCTTGC,-0.257
2,AACATTTC,0.123
3,AGAGAGAC,-0.143
4,GCGAATTA,0.241
5,GACGTGGA,-0.0188
6,AAGTAGCC,-0.116
7,GGTAATCA,0.189
8,TAAAAGGA,0.124
9,CTTGCGTC,-0.128
10,CCGACTCC,-0.157
11,GAGCCGCA,-0.0891
12,CTACCCCC,-0.321
13,CCGACCGA,-0.161
14,TCGCGGAA,-0.0286
15,GAATCTGC,-0.0595
16,GGACTATA,0.0794
17,CGAATTGC,0.131
18,AGGTACCG,-0.0762
19,GGACTGCC,-0.28
20,ATTAGCAC,0.153
21,CCGGGAAC,-0.0983
22,ATTCTTAA,-0.147

row,Sequence,PBM E-score
1,CAGCACTC,-0.128
2,ATCGGGTC,0.131
3,CGTCTTTA,0.184
4,GCGACACC,-0.161
5,GATTTTGC,0.0038
6,CCACCGGC,-0.272
7,ACCCCTTC,-0.182
8,CATCGCCG,-0.0138
9,CCCTTGCC,-0.0957
10,GAGTTATA,0.147
11,AGGATAGG,0.00943
12,GGCGAGGA,-0.17
13,TCGTCAGA,-0.102
14,GCCATACC,-0.214
15,CGGACTAG,-0.101
16,CCCTTTTA,-0.231
17,ACTGATCT,0.105
18,GAGGACAC,-0.00918
19,ACCTCCAC,-0.0474
20,ATGTGGTA,0.148
21,CGTTAGAG,-0.113
22,GCGAGAGA,-0.0815
